The nature of the test: qHTS Assay to Find Inhibitors of Chronic Active B-Cell Receptor Signaling. The following applies: ABC-DLBCL IkBa-CBG/CBR reporter, luminescence ratio (green luciferase fused to IkBa over red control in TMD8 lymphoma cells), 4 h. In short, it runs like this: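 TMD8 human ABC-DLBCL cells with doxycycline-inducible IκBα–green luciferase fusion and unfused red luciferase, in 0.5% FBS medium; compounds up to 46 uM, 4 h at 37C. Green/red luminescence ratio, filter-overlap corrected, fitted to concentration-response curves.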

The mark [1] stands for this setting: measured here: CBR red luminescence, cell number.
Where [2] appears, read: measured here: IkBa-CBG green luminescence.

SMILES strings stand for the structures. This is one part of the list. Further columns of the screen follow, without active or inactive calls. Compounds called inactive in the main read-out are mostly missing here. Words in brackets tell the shape of the fitted curve; partial curves, single points and poor fits give uncertain potencies.

As usually defined, the AC50 is the concentration giving half of the maximal activity seen. Consider `C=C(C)Cn1c(Sc2nc3ccccc3[nH]2)nc2c1c(=O)[nH]c(=O)n2C`, for which the AC50 under setting [1] is 35.5 µM [falling, single point].
As for `CC1Cc2cc(/C=C3/SC(=S)NC3=O)ccc2O1` (stereo not drawn), under setting [1], the AC50 is 25.1 µM [falling, single point].
Consider `COc1ccc(Cc2nc3ccc(S(N)(=O)=O)cc3[nH]2)cc1OC`, for which the AC50 under setting [1] was 20.6 µM [rising, single point].
On the same count and under the same terms, next, `COCCCNC(=O)CNC(=S)N(Cc1cc(OC)c(OC)c(OC)c1)C1CCCC1`: 18.4 µM [rising, partial curve, poor fit]; `COc1cccc(C(=O)Nc2nnc(-c3ccc(Cl)cc3)o2)c1`: 3.55 µM [falling, full curve]; `Cc1ccc([N+](=O)[O-])cc1S(=O)(=O)N1CCn2cccc2C1c1ccccc1` (stereo not drawn): 15.8 µM [rising, partial curve, poor fit].
For the compound `Cc1cccc(N(Cc2ccccc2)C(=O)CCl)c1`, the AC50 under setting [1] is 1.12 µM [falling, partial curve, poor fit].
In the case of `O=C(Cc1ccccc1)N1CCN(C(=O)c2ccco2)CC1`, the AC50 under setting [1] is 29.1 µM [rising, single point].
The same measure, in the same setting: next, `CC(=O)c1ccc(NC(=O)CN2CCC(NC(=O)C3CCCCC3)CC2)cc1`: 14.1 µM [rising, single point].
Same read-out and setting: next, `Cc1ccc(/C=N/Nc2cc(C)nc(N3CCOCC3)n2)cc1`: 0.251 µM [rising, full curve, poor fit].
As to `CN(c1ccccc1)c1nc(N)c([N+](=O)[O-])c(Nc2ccccc2)n1`, under setting [1], the AC50 is 0.794 µM [rising, full curve].
Consider `COc1cc(NC(=O)C/C(C)=N/NC(=O)C2CCCCC2)c(OC)cc1Cl`, for which, under setting [1], the AC50 is 20 µM [falling, single point].
On to `CC(NC(=O)c1ccccc1)C(=O)N/N=C/c1cccc([N+](=O)[O-])c1` (stereo not drawn), for which the AC50 under setting [1] was 35.5 µM [falling, single point].
Same read-out and setting: under `CCOC(=O)CNC(=O)C1COc2ccccc2O1` (stereo not drawn) stands 3.16 µM [falling, single point]; under `CC(=O)C1=C(C)NC(=O)NC1c1ccccc1` (stereo not drawn), 5.62 µM [rising, single point].
Same read-out and setting: next, `CN(C(=O)c1ccco1)c1nc(-c2ccc(Cl)cc2)cs1`: 1 µM [rising, full curve, poor fit]; `CCc1nnc(NC(=O)c2cccc(OC)c2)s1`: 29.1 µM [falling, single point]; `Oc1csc(Cc2nc(-c3ccc4ccccc4c3)cs2)n1`: 7.94 µM [rising, partial curve, poor fit].
On the same count and under the same terms, next, `COC(=O)c1[nH]c2ccc(Br)cc2c1NC(=O)CN1CCN(C2CCCCC2)CC1`: 17.8 µM [rising, partial curve]; `Cc1cc(-c2ccccc2)nc(Oc2ccc(C(C)(C)C)cc2)c1S(C)(=O)=O`: 14.1 µM [rising, single point]; `Cc1ccc(NC(=O)c2cnn(C)c2)cc1[N+](=O)[O-]`: 29.1 µM [rising, partial curve, poor fit].
For the compound `CCN(CC)S(=O)(=O)c1ccc(S(=O)(=O)N2CCCC2)cc1`, the AC50 under setting [1] was 3.55 µM [falling, partial curve, poor fit].
On to `COc1ccc(CCNC(=O)c2cc(COc3c(C)cccc3C)on2)c(OC)c1`, for which the AC50 under setting [1] is 14.1 µM [rising, single point].
On to `CCc1cccc(NC(=O)c2cccc(S(=O)(=O)N3CCN(C)CC3)c2)c1`, for which the AC50 under setting [1] is 3.98 µM [rising, full curve, poor fit].
Regarding `CCO[C@H]1OC(C(=O)NCc2ccccc2)=C[C@@H](c2ccc(C(F)(F)F)cc2)[C@@H]1CCCO`, under setting [1], the AC50 is 35.5 µM [falling, single point].
The same measure, in the same setting: next, `NC(=O)N/N=C/c1ccc(-c2cccc(C(F)(F)F)c2)o1`: 14.1 µM [rising, partial curve]; `COc1ccc(Br)cc1CNC(=O)CCSCc1ccc(C)cc1`: 20 µM [falling, single point]; `CCn1c(SCC(=O)N/N=C/C=C/c2ccccc2[N+](=O)[O-])nnc1-c1ccc(Cl)cc1`: 32.6 µM [falling, single point].
The same measure, in the same setting: next, `CC(O)[C@H]1CNC(=O)C(=O)N1CCCCC1CCCCC1` (stereo partly drawn): 6.31 µM [falling, single point].
The same measure, in the same setting: under `CCC(C)c1ccc(NC(=S)NCc2ccccc2OC)cc1` (stereo not drawn) stands 22.4 µM [falling, single point].
On to `Cc1cc(NC(=S)Nc2ccc(C)c(Cl)c2)n[nH]1`, for which the half-maximal activity concentration (AC50) reads like this: under setting [1], 14.1 µM [rising, partial curve]; under setting [2], 17.8 µM [falling, partial curve, poor fit].
For `COc1ccc(-c2cc(=NC(CC(C)C)C(=O)O)c3cc(C)ccc3o2)cc1` (stereo not drawn), the AC50 under setting [1] was 0.146 µM [rising, full curve, poor fit].
The same measure, in the same setting: under `O=C(CSc1nnc(-c2c[nH]c3ccccc23)o1)N1c2ccccc2CCc2ccccc21` stands 1.58 µM [falling, full curve, poor fit]; under `Cc1ccccc1OCC(=O)Nc1cccc(N(C)S(C)(=O)=O)c1`, 18.4 µM [falling, partial curve].
With `Fc1ccc(-c2ccc(/C=N\n3cnnc3)o2)cc1Cl`, the AC50 under setting [1] was 3.66 µM [falling, partial curve].
On the same count and under the same terms, next, `Cc1ccc(Cl)cc1-n1ncc2c(NCCCc3ccccc3)ncnc21`: 35.5 µM [falling, single point].
Consider `CCCOC(=O)c1c(-c2ccc(OC)cc2)oc2ccc(-c3ccc(OC)nc3)cc12`, for which the AC50 under setting [1] is 2.51 µM [rising, partial curve, poor fit].
As for `CC(SCc1cc(=O)n2c([nH]c3ccccc32)c1C#N)C(=O)O` (stereo not drawn), the AC50 reads like this: under setting [1], 31.6 µM [falling, single point]; under setting [2], 11.2 µM [rising, partial curve, poor fit].
For `Cc1ccc(/C(=N/Nc2ncnc3ccccc23)C(=O)O)cc1`, the AC50 under setting [1] is 35.5 µM [falling, single point].
On the same count and under the same terms, next, `CCCn1c(SCC(=O)Nc2sc(C)c(C)c2C#N)nnc1C(C)C`: 11.2 µM [falling, partial curve, poor fit]; `CCOc1ccc(NC(=O)CCC(=O)O)cc1`: 14.6 µM [falling, partial curve, poor fit].

The values above are taken from PubChem BioAssay AID493014 (National Center for Advancing Translational Sciences (NCATS), 2011).
